No constants are given. Whether binding was seen depends on the method and setting. For some assays here: Binding can be weak; no strength is given. Each block holds one molecule with its values, some of them ahead of it.
What was measured:
[1] = target: AtCBL4 (pGBT⋅AtCBL4) (Arabidopsis) (UniProt O81223); test: two-hybrid; Gal4p-based system, BD (pGBT9.BS) and AD (pGAD.GH) plasmids in yeast Y190; growth on SC-HLW (HIS3) and β-galactosidase filter-lift assay (LacZ)
[2] = target: BD⋅SlCBL4 (Solanum lycopersicum (tomato)) (UniProt Q4W3B4); test: as above
[3] = target: GST-SlCIPK24 (Solanum lycopersicum (tomato)) (UniProt Q4W3B3); test: pull-down; GST or GST-SlCIPK24 bait on glutathione-Sepharose 4B beads, SlCBL4:c-Myc prey, 4 °C, 1 h, 50 mM Tris-HCl pH 7.4, 100 mM NaCl, 0.05% Tween 20, 1 mM PMSF, with 1 mM CaCl2; immunoblot with anti-c-Myc; both purified
[4] = target: GST-SlCIPK24 (Solanum lycopersicum (tomato)) (UniProt Q4W3B3); test: pull-down; GST or GST-SlCIPK24 bait on glutathione-Sepharose 4B beads, SlCBL4:c-Myc prey, 4 °C, 1 h, 50 mM Tris-HCl pH 7.4, 100 mM NaCl, 0.05% Tween 20, 1 mM PMSF, with 2 mM EGTA (absence of calcium); immunoblot with anti-c-Myc; both purified

Amino acid sequences for entries named in this document (tags omitted). A change or cut given only in a name is not applied to a line headed by its entry.
UniProt O81223: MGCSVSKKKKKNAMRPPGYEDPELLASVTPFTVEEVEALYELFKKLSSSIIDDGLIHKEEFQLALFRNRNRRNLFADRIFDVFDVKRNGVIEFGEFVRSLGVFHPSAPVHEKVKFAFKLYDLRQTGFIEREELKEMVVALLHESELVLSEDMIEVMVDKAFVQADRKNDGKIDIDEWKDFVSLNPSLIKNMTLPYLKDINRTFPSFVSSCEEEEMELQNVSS
UniProt Q4W3B4: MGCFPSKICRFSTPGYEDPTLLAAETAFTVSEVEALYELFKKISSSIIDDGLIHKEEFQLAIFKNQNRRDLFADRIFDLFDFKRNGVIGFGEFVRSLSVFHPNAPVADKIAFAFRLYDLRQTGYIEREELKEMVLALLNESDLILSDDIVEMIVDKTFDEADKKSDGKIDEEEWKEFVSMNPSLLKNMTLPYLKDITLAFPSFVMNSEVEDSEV
UniProt Q4W3B3: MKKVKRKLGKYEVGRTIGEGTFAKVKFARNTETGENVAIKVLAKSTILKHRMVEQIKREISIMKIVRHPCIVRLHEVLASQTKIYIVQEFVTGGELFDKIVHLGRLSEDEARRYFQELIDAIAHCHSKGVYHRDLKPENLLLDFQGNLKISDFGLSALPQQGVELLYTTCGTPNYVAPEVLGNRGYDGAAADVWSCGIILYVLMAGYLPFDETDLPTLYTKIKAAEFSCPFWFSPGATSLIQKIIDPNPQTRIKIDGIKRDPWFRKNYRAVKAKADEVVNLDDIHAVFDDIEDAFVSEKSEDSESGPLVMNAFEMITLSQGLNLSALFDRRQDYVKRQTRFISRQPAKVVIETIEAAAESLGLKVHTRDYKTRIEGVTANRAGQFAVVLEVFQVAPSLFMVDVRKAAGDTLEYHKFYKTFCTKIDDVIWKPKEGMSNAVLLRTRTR

binding [1]: binds
binding [2]: binds
Molecule: AD⋅SlCIPK24 (from UniProt Q4W3B3)

binding [3]: binds
Molecule: SlCBL4:c-Myc (from UniProt Q4W3B4)
binding [4]: no binding (only in the absence of Ca2+ (2 mM EGTA))

binding [2]: binds
B1: AtCIPK24 (pGAD⋅AtCIPK24) (protein, UniProt Q9LDI3 1-446)
chain: MTKKMRRVGKYEVGRTIGEGTFAKVKFARNTDTGDNVAIKIMAKSTILKNRMVDQIKREISIMKIVRHPNIVRLYEVLASPSKIYIVLEFVTGGELFDRIVHKGRLEESESRKYFQQLVDAVAHCHCKGVYHRDLKPENLLLDTNGNLKVSDFGLSALPQEGVELLRTTCGTPNYVAPEVLSGQGYDGSAADIWSCGVILFVILAGYLPFSETDLPGLYRKINAAEFSCPPWFSAEVKFLIHRILDPNPKTRIQIQGIKKDPWFRLNYVPIRAREEEEVNLDDIRAVFDGIEGSYVAENVERNDEGPLMMNAFEMITLSQGLNLSALFDRRQDFVKRQTRFVSRREPSEIIANIEAVANSMGFKSHTRNFKTRLEGLSSIKAGQLAVVIEIYEVAPSLFMVDVRKAAGETLEYHKFYKKLCSKLENIIWRATEGIPKSEILRTITF

From publication PMC8541381
